Source: paper PMC5740495
These are yes or no findings as the source states them, for the method shown. Binding seen in cells or lysates may run through a third protein. These calls come from enrichment with a bait or labelling near it, and not all partners need be listed.

By UniProt entry, the sequences of proteins in these tests, tags left out.
UniProt Q8TEX9: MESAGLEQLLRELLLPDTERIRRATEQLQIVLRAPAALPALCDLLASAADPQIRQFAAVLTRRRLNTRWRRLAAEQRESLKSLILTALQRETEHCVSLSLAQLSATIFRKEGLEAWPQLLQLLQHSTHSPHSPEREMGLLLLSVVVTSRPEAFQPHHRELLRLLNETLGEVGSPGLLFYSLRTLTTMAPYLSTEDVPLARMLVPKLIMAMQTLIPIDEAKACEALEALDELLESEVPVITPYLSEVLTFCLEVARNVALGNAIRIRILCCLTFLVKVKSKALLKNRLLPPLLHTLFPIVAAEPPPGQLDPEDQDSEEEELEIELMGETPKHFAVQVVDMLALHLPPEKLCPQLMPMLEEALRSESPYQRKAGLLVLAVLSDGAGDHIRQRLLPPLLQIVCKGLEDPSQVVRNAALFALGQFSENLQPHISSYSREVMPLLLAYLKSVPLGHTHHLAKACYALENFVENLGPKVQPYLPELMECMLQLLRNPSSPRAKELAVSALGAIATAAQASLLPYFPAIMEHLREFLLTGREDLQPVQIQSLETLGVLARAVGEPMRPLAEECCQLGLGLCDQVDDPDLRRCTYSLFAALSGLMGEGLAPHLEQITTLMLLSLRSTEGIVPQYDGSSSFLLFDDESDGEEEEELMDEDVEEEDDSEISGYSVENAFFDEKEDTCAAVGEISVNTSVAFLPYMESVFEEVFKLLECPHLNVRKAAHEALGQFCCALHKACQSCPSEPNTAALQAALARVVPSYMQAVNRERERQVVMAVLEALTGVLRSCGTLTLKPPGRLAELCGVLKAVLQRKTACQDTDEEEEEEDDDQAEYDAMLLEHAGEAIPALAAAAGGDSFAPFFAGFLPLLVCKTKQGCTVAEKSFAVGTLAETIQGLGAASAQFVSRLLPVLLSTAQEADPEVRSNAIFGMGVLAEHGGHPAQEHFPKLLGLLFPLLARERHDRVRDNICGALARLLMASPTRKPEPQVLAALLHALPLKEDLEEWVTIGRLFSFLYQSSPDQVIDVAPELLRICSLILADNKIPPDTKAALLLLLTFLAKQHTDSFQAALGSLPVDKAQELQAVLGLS
UniProt O00410: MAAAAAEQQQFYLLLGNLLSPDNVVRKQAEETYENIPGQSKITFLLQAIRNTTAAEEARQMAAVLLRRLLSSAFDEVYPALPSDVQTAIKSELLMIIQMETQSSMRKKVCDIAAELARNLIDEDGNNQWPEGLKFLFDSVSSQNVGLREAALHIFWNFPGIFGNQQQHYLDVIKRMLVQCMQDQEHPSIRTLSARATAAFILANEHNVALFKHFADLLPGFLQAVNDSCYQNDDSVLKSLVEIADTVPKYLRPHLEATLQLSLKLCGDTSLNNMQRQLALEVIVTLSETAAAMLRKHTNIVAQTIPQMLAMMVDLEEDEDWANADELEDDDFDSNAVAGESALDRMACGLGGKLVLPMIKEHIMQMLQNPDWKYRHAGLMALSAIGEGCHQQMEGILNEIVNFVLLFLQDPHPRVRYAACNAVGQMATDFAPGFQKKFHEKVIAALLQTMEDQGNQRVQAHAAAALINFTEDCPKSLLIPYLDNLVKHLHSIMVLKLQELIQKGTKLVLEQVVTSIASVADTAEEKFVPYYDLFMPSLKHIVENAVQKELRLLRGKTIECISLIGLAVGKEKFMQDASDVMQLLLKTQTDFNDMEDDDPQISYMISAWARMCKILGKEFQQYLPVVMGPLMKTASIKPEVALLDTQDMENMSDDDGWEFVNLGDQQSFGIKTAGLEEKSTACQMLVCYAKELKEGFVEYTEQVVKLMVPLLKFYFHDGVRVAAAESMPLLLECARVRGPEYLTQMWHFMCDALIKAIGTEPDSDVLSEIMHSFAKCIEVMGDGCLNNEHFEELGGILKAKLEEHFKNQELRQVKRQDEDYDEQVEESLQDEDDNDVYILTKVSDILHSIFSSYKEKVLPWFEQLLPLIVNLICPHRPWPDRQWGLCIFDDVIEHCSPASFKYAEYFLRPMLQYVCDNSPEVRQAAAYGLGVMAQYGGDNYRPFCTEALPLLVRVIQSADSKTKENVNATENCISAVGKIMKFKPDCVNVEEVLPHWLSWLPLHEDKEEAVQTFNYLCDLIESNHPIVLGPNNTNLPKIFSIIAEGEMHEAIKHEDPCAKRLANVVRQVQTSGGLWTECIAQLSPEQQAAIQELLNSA
UniProt Q15596: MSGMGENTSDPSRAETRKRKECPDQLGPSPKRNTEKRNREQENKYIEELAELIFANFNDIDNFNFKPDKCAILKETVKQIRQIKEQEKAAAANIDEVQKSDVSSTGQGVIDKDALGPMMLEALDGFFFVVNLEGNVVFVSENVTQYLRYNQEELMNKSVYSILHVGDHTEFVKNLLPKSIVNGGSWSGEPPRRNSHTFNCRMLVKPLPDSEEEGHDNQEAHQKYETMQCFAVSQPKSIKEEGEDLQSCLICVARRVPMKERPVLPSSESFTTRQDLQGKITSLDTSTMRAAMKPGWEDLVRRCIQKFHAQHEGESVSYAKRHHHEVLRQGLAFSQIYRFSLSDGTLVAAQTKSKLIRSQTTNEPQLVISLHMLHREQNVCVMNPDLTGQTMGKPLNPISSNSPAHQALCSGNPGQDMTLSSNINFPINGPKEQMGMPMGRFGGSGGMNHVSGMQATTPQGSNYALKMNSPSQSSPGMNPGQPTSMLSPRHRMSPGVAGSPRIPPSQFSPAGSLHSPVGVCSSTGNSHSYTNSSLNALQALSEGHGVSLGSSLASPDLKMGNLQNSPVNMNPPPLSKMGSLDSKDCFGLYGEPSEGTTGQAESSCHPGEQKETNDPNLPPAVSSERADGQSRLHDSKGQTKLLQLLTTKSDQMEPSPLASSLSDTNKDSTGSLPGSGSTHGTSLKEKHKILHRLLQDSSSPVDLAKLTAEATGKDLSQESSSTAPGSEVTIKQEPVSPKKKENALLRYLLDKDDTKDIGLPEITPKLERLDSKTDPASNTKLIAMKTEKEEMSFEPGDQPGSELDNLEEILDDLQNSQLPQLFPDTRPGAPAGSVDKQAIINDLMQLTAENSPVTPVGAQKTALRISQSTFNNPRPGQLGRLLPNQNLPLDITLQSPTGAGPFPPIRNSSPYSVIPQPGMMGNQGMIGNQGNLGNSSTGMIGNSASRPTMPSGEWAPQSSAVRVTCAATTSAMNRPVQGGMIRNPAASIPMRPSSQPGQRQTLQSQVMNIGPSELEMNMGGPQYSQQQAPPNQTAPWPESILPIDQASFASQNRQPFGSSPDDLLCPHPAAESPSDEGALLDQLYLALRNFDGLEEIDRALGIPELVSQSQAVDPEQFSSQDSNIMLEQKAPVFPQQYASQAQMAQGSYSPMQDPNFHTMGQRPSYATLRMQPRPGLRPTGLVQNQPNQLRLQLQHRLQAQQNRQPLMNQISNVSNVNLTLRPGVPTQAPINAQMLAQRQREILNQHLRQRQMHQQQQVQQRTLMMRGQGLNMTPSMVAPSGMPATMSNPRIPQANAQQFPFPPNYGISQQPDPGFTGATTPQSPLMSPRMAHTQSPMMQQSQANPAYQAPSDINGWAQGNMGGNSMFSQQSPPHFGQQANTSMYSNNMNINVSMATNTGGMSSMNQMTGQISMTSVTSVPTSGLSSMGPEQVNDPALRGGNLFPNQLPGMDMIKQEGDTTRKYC
UniProt O75821: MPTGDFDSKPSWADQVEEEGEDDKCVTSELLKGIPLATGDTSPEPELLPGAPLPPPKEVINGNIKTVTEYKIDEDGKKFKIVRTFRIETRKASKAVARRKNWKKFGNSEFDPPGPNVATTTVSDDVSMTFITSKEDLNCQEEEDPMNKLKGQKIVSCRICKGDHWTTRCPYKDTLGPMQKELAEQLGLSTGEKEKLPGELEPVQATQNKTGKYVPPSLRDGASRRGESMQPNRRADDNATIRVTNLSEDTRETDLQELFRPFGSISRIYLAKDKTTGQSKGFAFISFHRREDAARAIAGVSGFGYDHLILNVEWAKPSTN
UniProt O75822: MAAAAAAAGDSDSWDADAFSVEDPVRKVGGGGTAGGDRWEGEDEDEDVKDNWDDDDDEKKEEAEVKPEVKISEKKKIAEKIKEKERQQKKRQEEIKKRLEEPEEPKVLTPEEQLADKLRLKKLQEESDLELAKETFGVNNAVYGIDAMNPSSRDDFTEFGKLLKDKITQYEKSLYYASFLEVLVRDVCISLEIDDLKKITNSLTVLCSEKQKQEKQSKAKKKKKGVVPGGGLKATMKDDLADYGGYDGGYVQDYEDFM
UniProt Q9Y2F5: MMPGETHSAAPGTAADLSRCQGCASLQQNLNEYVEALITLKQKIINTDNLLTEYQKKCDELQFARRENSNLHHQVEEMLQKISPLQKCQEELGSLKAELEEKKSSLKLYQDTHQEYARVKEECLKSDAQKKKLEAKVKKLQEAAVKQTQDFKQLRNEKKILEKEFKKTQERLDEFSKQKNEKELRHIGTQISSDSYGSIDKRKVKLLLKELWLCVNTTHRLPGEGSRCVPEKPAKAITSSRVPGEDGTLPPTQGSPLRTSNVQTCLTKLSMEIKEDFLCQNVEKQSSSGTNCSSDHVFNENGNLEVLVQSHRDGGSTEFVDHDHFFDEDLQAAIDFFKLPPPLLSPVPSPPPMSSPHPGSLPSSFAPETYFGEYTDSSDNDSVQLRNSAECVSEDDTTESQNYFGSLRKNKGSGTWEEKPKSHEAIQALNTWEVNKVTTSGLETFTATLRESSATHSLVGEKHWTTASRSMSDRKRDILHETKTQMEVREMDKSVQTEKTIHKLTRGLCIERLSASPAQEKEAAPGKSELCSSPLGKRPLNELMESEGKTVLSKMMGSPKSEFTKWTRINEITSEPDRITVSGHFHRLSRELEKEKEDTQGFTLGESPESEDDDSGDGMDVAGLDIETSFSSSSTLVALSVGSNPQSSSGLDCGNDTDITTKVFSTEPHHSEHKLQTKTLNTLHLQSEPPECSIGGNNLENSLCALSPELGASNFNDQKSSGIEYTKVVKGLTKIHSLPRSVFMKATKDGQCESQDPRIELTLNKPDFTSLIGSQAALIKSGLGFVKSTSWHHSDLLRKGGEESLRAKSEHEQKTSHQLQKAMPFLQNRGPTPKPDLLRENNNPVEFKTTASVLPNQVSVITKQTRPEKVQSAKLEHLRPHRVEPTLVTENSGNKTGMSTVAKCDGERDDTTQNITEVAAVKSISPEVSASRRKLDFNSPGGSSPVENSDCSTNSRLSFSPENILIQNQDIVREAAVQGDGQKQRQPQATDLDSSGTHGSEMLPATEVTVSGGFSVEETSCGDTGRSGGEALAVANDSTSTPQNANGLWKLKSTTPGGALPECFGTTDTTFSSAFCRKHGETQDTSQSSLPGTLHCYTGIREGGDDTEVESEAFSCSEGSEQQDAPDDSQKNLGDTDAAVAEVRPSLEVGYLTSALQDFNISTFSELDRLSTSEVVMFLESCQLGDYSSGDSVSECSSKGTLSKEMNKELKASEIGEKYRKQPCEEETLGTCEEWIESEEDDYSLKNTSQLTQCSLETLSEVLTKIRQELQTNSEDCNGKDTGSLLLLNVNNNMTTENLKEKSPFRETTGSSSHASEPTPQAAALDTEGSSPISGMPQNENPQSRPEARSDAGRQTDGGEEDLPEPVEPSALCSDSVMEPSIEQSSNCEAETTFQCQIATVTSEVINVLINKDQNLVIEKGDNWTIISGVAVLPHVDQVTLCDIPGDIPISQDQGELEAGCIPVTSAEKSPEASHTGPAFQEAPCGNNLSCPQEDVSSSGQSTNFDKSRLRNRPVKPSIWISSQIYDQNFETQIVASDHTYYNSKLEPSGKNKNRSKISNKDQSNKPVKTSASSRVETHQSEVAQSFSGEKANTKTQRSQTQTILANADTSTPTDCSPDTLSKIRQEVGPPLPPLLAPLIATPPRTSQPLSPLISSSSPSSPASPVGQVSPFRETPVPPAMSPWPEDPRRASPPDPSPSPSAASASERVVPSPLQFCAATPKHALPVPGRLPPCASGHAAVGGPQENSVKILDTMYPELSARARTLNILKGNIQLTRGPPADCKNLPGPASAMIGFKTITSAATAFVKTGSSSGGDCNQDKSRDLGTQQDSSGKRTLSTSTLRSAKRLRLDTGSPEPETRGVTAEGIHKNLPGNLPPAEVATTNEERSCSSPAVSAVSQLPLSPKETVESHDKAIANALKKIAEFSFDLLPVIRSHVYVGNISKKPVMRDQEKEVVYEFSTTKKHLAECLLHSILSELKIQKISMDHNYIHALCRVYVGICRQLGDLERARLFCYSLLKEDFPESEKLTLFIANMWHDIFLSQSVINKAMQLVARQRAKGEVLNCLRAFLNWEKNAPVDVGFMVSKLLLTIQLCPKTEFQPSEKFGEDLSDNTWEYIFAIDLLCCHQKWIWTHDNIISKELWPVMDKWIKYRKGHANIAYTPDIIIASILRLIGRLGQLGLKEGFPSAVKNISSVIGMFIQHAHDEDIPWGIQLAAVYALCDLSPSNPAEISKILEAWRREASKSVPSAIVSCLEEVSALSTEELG

B1: DKC1 (protein, UniProt O60832 1-514)
chain: MADAEVIILPKKHKKKKERKSLPEEDVAEIQHAEEFLIKPESKVAKLDTSQWPLLLKNFDKLNVRTTHYTPLACGSNPLKREIGDYIRTGFINLDKPSNPSSHEVVAWIRRILRVEKTGHSGTLDPKVTGCLIVCIERATRLVKSQQSAGKEYVGIVRLHNAIEGGTQLSRALETLTGALFQRPPLIAAVKRQLRVRTIYESKMIEYDPERRLGIFWVSCEAGTYIRTLCVHLGLLLGVGGQMQELRRVRSGVMSEKDHMVTMHDVLDAQWLYDNHKDESYLRRVVYPLEKLLTSHKRLVMKDSAVNAICYGAKIMLPGVLRYEDGIEVNQEIVVITTKGEAICMAIALMTTAVISTCDHGIVAKIKRVIMERDTYPRKWGLGPKASQKKLMIKQGLLDKHGKPTDSTPATWKQEYVDYSESAKKEVVAEVVKAPQVVAEAAKTAKRKRESESESDETPPAAPQLIKKEKKKSKKDKKAKAGLESGAEPGDGDSDTTKKKKKKKKAKEVELVSE
B2: TNPO2 (protein, UniProt O14787 1-897)
chain: MDWQPDEQGLQQVLQLLKDSQSPNTATQRIVQDKLKQLNQFPDFNNYLIFVLTRLKSEDEPTRSLSGLILKNNVKAHYQSFPPPVADFIKQECLNNIGDASSLIRATIGILITTIASKGELQMWPELLPQLCNLLNSEDYNTCEGAFGALQKICEDSSELLDSDALNRPLNIMIPKFLQFFKHCSPKIRSHAIACVNQFIMDRAQALMDNIDTFIEHLFALAVDDDPEVRKNVCRALVMLLEVRIDRLIPHMHSIIQYMLQRTQDHDENVALEACEFWLTLAEQPICKEVLASHLVQLIPILVNGMKYSEIDIILLKGDVEEDEAVPDSEQDIKPRFHKSRTVTLPHEAERPDGSEDAEDDDDDDALSDWNLRKCSAAALDVLANVFREELLPHLLPLLKGLLFHPEWVVKESGILVLGAIAEGCMQGMVPYLPELIPHLIQCLSDKKALVRSIACWTLSRYAHWVVSQPPDMHLKPLMTELLKRILDGNKRVQEAACSAFATLEEEACTELVPYLSYILDTLVFAFGKYQHKNLLILYDAIGTLADSVGHHLNQPEYIQKLMPPLIQKWNELKDEDKDLFPLLECLSSVATALQSGFLPYCEPVYQRCVTLVQKTLAQAMMYTQHPEQYEAPDKDFMIVALDLLSGLAEGLGGHVEQLVARSNIMTLLFQCMQDSMPEVRQSSFALLGDLTKACFIHVKPCIAEFMPILGTNLNPEFISVCNNATWAIGEICMQMGAEMQPYVQMVLNNLVEIINRPNTPKTLLENTGRLTSPSAIPAITIGRLGYVCPQEVAPMLQQFIRPWCTSLRNIRDNEEKDSAFRGICMMIGVNPGGVVQDFIFFCDAVASWVSPKDDLRDMFYKILHGFKDQVGEDNWQQFSEQFPPLLKERLAAFYGV
B3: CRTC3 (protein, UniProt Q6UUV7 1-619)
chain: MAASPGSGSANPRKFSEKIALHTQRQAEETRAFEQLMTDLTLSRVQFQKLQQLRLTQYHGGSLPNVSQLRSSASEFQPSFHQADNVRGTRHHGLVERPSRNRFHPLHRRSGDKPGRQFDGSAFGANYSSQPLDESWPRQQPPWKDEKHPGFRLTSALNRTNSDSALHTSALSTKPQDPYGGGGQSAWPAPYMGFCDGENNGHGEVASFPGPLKEENLLNVPKPLPKQLWETKEIQSLSGRPRSCDVGGGNAFPHNGQNLGLSPFLGTLNTGGSLPDLTNLHYSTPLPASLDTTDHHFGSMSVGNSVNNIPAAMTHLGIRSSSGLQSSRSNPSIQATLNKTVLSSSLNNHPQTSVPNASALHPSLRLFSLSNPSLSTTNLSGPSRRRQPPVSPLTLSPGPEAHQGFSRQLSSTSPLAPYPTSQMVSSDRSQLSFLPTEAQAQVSPPPPYPAPQELTQPLLQQPRAPEAPAQQPQAASSLPQSDFQLLPAQGSSLTNFFPDVGFDQQSMRPGPAFPQQVPLVQQGSRELQDSFHLRPSPYSNCGSLPNTILPEDSSTSLFKDLNSALAGLPEVSLNVDTPFPLEEELQIEPLSLDGLNMLSDSSMGLLDPSVEETFRADRL
B4: FUBP2 (protein, UniProt Q92945 1-711)
chain: MSDYSTGGPPPGPPPPAGGGGGAGGAGGGPPPGPPGAGDRGGGGPGGGGPGGGSAGGPSQPPGGGGPGIRKDAFADAVQRARQIAAKIGGDAATTVNNSTPDFGFGGQKRQLEDGDQPESKKLASQGDSISSQLGPIHPPPRTSMTEEYRVPDGMVGLIIGRGGEQINKIQQDSGCKVQISPDSGGLPERSVSLTGAPESVQKAKMMLDDIVSRGRGGPPGQFHDNANGGQNGTVQEIMIPAGKAGLVIGKGGETIKQLQERAGVKMILIQDGSQNTNVDKPLRIIGDPYKVQQACEMVMDILRERDQGGFGDRNEYGSRIGGGIDVPVPRHSVGVVIGRSGEMIKKIQNDAGVRIQFKQDDGTGPEKIAHIMGPPDRCEHAARIINDLLQSLRSGPPGPPGGPGMPPGGRGRGRGQGNWGPPGGEMTFSIPTHKCGLVIGRGGENVKAINQQTGAFVEISRQLPPNGDPNFKLFIIRGSPQQIDHAKQLIEEKIEGPLCPVGPGPGGPGPAGPMGPFNPGPFNQGPPGAPPHAGGPPPHQYPPQGWGNTYPQWQPPAPHDPSKAAAAAADPNAAWAAYYSHYYQQPPGPVPGPAPAPAAPPAQGEPPQPPPTGQSDYTKAWEEYYKKIGQQPQQPGAPPQQDYTKAWEEYYKKQAQVATGGGPGAPPGSQPDYSAAWAEYYRQQAAYYGQTPGPGGPQPPPTQQGQQQAQ

What was measured:
IPO4 (human) = IPO4 (human) (UniProt Q8TEX9); experiment: proximity labelling; BioID, large-scale, direct identification of biotinylated peptides: same NTR-BirA* lines; biotinylated peptides eluted from streptavidin beads with 80% ACN, 20% TFA after the on-bead digest, MS
IPO5 (human) = IPO5 (human) (UniProt O00410); experiment: as above
IMA6 (human) = IMA6 (human) (UniProt O15131); experiment: as above
SRC2 (human) = SRC2 (human) (UniProt Q15596); experiment: proximity labelling; BioID, reciprocal: cargo fused to BirA*-FLAG (N- or C-terminal) in stable Flp-In T-REx 293 lines, four biological replicates; cargo interactomes compared pairwise, with BirA* alone and non-engineered cells
IMA5 (human) = IMA5 (human) (UniProt P52294); experiment: proximity labelling; BioID, large-scale, direct identification of biotinylated peptides: same NTR-BirA* lines; biotinylated peptides eluted from streptavidin beads with 80% ACN, 20% TFA after the on-bead digest, MS
TNPO2 (human) = biological target: T1, TNPO2 (human) (UniProt O14787); experiment: as above
T1 sequence: B2 chain

| binding (IPO4 (human)) | binding (IPO5 (human)) | binding (SRC2 (human)) | also measured | Molecule |
| --- | --- | --- | --- | --- |
| binds | binds |  |  | Eukaryotic translation initiation factor 3 Subunit G (from UniProt O75821 1-320) |
| binds | binds |  |  | Eukaryotic translation initiation factor 3 Subunit J (from UniProt O75822 1-258) |
|  |  |  | binding (IMA6 (human)): binds | ICE1 (from UniProt Q9Y2F5 1-2266) |
|  |  | binds |  | IMA4 (from UniProt O00505 1-521) |
|  |  | binds |  | IMA5 (from UniProt P52294 1-538) |
|  |  | binds |  | TNPO1 (from UniProt Q92973 1-898) |
| binds | binds |  |  | eIF3E (from UniProt P60228 1-445) |
| binds | binds |  |  | eukaryotic translation initiation factor 3 (subunit D, EIF3D) (from UniProt O15371 1-548) |
|  |  |  | binding (IMA5 (human)): binds; binding (IMA6 (human)): binds | B1 |
|  |  | binds |  | B2 |
|  |  |  | binding (TNPO2 (human)): binds | B3 |
|  |  |  | binding (TNPO2 (human)): binds | B4 |
